In patent publication US20160368879A1, “PHOTOACID GENERATOR, AND RESIN COMPOSITION FOR PHOTOLITHOGRAPHY” (SAN-APRO LTD., priority 2013, published 2016):

Assay: Resist curing properties: lowest exposure quantity of a phenol resin/melamine negative resist film
Conditions: for Resist curing properties: 1 part photoacid generator in phenol resin/CYMEL 300 resist, film about 3 μm, PEB 10 minutes 120° C., 0.5% potassium hydroxide development; for Lowest exposure quantity: lowest exposure (365 nm) giving change in film thickness before and after development within 10%
Method: A resin solution of 75 parts of a phenol resin (“PHENOLITE TD 431” available from DIC Corporation), 25 parts of a melamine curing agent (“CYMEL 300” available from MITSUI CYANAMID Co., Ltd.), 1 part of a synthesized photoacid generator and 200 parts of propylene glycol monomethyl ether acetate (hereinafter, abbreviated as PGMEA) was applied on a glass substrate of 10 cm square under a condition of 10 seconds at 1000 rpm using a spin coater. Then, the applied film was dried under vacuum for 5 minutes at 25° C., after which the film was dried for 3 minutes on an 80° C. hot plate to form a resist film with a film thickness of about 3 μm. The whole face of this resist film was exposed with a prescribed dose of ultraviolet light having a wavelength limited by the L-34 filter (a filter cutting light with a wavelength less than 340 nm, available from Kenko Optical Co., Ltd.) using an ultraviolet irradiation device (HMW-661F-01 available from ORC MANUFACTURING CO., LTD.). In this connection, a wavelength of 365 nm was measured for the integrated exposure quantity. Then, the film was subjected to post exposure baking (PEB) for 10 minutes with a 120° C. fair wind dryer, after which the film was immersed for 30 seconds in a 0.5% potassium hydroxide solution to be subjected to development, washed immediately with water and dried.
The film thickness of this resist film was measured using a shape measuring microscope (super-depth shape measuring microscope VK-8550, available from KEYENCE CORPORATION).
In this context, the resist curing properties were evaluated according to the following criteria on the basis of the lowest exposure quantity with which a change in film thickness of the resist film before and after development of within 10% was attained.
◯: The lowest exposure quantity is 250 mJ/cm^2 or less. Δ: The lowest exposure quantity is greater than 250 mJ/cm^2 and 500 mJ/cm^2 or less. x: The lowest exposure quantity is greater than 500 mJ/cm^2.

CC(C)(C)c1cc2c3c(cc(C(C)(C)C)cc3c1)C(=O)N(OS(=O)(=O)CC13CCC(CC1=O)C3(C)C)C2=O (stereo not drawn) [Example A-53, 3,6-di-tert-butyl-1,8-naphthalimide-(+)-10-camphorsulfonate]
Resist curing properties: ∘
Lowest exposure quantity: 130 mJ/cm^2

CC(C)(C)Cc1cc2c3c(cc(CC(C)(C)C)cc3c1)C(=O)N(OS(=O)(=O)CC13CCC(CC1=O)C3(C)C)C2=O (stereo not drawn) [Example A-54, 3,6-dineopentyl-1,8-naphthalimide-(+)-10-camphorsulfonate]
Resist curing properties: ∘
Lowest exposure quantity: 140 mJ/cm^2

CC1(C)C2CC[C@@]1(CS(=O)(=O)ON1C(=O)c3cc(C45CC6CC(CC(C6)C4)C5)cc4cc(C56CC7CC(CC(C7)C5)C6)cc(c34)C1=O)C(=O)C2 [Example A-55, 3,6-diadamantyl-1,8-naphthalimide-(+)-10-camphorsulfonate]
Resist curing properties: ∘
Lowest exposure quantity: 160 mJ/cm^2

CC1(C)C2CCC1(CS(=O)(=O)ON1C(=O)c3cccc4c(C(F)(F)C(F)(F)C(F)(F)C(F)(F)F)ccc(c34)C1=O)C(=O)C2 (stereo not drawn) [Example A-56, 4-(nonafluorobutyl)-1,8-naphthalimide-(+)-10-camphorsulfonate]
Lowest exposure quantity: 440 mJ/cm^2

CC1(C)C2CCC1(CS(=O)(=O)ON1C(=O)c3cccc4c(C(F)(F)C(F)(F)C(F)(F)C(F)(F)C(F)(F)C(F)(F)C(F)(F)C(F)(F)F)ccc(c34)C1=O)C(=O)C2 (stereo not drawn) [Example A-57, 4-(heptadecafluoro-n-octyl)-1,8-naphthalimide-(+)-10-camphorsulfonate]
Lowest exposure quantity: 410 mJ/cm^2

CC1(C)[C@@H]2CC[C@@]1(CS(=O)(=O)ON1C(=O)c3cccc4c([Si](C)(C)C)ccc(c34)C1=O)C(=O)C2 [Example A-58, 4-trimethylsilyl-1,8-naphthalimide-(+)-10-camphorsulfonate]
Resist curing properties: ∘
Lowest exposure quantity: 170 mJ/cm^2

CC1(C)C2CCC1(CS(=O)(=O)ON1C(=O)c3cccc4c(Cl)ccc(c34)C1=O)C(=O)C2 (stereo not drawn) [Example A-59, 4-chloro-1,8-naphthalimide-(+)-10-camphorsulfonate]
Resist curing properties: ∘
Lowest exposure quantity: 240 mJ/cm^2

CC1(C)C2CCC1(CS(=O)(=O)ON1C(=O)c3cccc4c(Br)ccc(c34)C1=O)C(=O)C2 (stereo not drawn) [Example A-60, 4-bromo-1,8-naphthalimide-(+)-10-camphorsulfonate]
Resist curing properties: ∘
Lowest exposure quantity: 250 mJ/cm^2
